Experimental findings from article PMC3669046 are described below.

By UniProt entry, the sequences of proteins in these tests, tags left out. Where a name states a change or a piece, a line headed by the entry shows the natural chain unless it says otherwise.
UniProt P49407: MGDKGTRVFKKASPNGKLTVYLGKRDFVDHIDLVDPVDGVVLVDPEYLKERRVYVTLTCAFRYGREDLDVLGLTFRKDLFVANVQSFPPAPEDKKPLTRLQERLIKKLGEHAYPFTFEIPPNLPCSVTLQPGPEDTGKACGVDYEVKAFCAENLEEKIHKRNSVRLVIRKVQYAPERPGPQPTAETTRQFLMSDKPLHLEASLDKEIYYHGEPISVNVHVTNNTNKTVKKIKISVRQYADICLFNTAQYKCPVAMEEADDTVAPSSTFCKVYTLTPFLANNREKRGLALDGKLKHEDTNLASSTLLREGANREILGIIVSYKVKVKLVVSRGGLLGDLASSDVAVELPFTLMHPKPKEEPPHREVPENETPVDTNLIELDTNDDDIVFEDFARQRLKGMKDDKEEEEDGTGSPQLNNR

Test [1] concerns the target T1, VE-cadherin phosphomimetic mutant (SD), S665D (UniProt P33151).
T1 sequence: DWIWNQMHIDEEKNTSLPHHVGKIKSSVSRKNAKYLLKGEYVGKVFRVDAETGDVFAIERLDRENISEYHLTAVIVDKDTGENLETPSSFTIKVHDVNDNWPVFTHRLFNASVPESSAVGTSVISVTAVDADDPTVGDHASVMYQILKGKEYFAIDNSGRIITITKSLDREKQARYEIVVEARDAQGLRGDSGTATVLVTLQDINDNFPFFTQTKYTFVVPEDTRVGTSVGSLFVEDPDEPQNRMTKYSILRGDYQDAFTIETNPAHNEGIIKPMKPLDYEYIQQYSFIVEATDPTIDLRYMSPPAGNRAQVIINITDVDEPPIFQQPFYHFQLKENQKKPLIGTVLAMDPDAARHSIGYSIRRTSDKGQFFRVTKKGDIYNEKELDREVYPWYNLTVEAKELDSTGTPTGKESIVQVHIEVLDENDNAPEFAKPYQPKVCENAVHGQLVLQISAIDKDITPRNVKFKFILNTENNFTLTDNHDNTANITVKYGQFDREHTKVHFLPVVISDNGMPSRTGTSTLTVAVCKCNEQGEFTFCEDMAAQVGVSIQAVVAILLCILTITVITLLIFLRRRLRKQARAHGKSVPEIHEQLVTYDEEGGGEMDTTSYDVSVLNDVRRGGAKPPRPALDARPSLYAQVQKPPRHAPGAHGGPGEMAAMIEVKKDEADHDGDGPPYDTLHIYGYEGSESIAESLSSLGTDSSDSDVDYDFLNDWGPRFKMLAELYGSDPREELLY
Kind of test: co-IP; HEK-293T co-transfected with VE-cadherin (WT, SV or SD) and CFP-myc-tagged β-arrestin1 (full-length, deleted forms or C-tail); IP fractions analysed by western-blot.

Test [2] deals with T1, VE-cadherin phosphomimetic mutant (SD), S665D. The test can be described thus: co-IP; competition: HEK-293T co-transfected with VEC SD mutant, a constant amount of full-length myc-βarr1 and increasing concentrations of CFP-myc-tagged β-arrestin1 C-terminus tail; western-blot.
Test [3] addresses T2, VE-cadherin wild-type (WT), expressed in HEK-293T (UniProt P33151).
T2 sequence: T1 sequence with D618S
The test can be described thus: co-IP; HEK-293T co-transfected with VE-cadherin (WT, SV or SD) and CFP-myc-tagged β-arrestin1 (full-length, deleted forms or C-tail); IP fractions analysed by western-blot.

For test [4], the target named is T3, VE-cadherin (vascular endothelial cadherin), endogenous in HUVEC (human (endogenous in HUVEC)) (UniProt P33151).
T3 sequence: T1 sequence with D618S
The test can be described thus: co-IP; endogenous proteins in HUVEC; overnight serum starvation, VEGF 50 ng/ml for the indicated times; anti-VE-cadherin and anti-β-arrestin1/2 immunoprecipitates analysed by western-blot.

Residue numbers refer to the chain shown, from its start. No constants are given. Whether binding was seen depends on the method and setting. Binding seen in cells or lysates may run through a third protein. Some binding calls cover weakened binding; strength is not graded here.

For “CFP-myc-tagged β-arrestin1 C-terminus tail (amino acids 375-418) (from UniProt P49407 375-418) (domain or fragment)”, the binding result in test [1] is “binds”.

In the case of “CFP-myc-tagged β-arrestin1, full-length (1-418) (from UniProt P49407 1-418)”, the binding entry in test [2], in test [1] and in test [3] was “binds” in each case. With “β-arrestin1, endogenous in HUVEC (from UniProt P49407 1-418)”, in test [4], the binding result is given as “binds”.
